# Assay results as given in paper PMC8546699, “Ehrlichia chaffeensis TRP120 Is a Wnt Ligand Mimetic That Interacts with Wnt Receptors and Contains a Novel Repetitive Short Linear Motif That Activates Wnt Signaling” (mSphere, 2021).
# Amino acid sequences for entries named in this document (tags omitted). A change or cut given only in a name is not applied to a line headed by its entry.
# UniProt O00144: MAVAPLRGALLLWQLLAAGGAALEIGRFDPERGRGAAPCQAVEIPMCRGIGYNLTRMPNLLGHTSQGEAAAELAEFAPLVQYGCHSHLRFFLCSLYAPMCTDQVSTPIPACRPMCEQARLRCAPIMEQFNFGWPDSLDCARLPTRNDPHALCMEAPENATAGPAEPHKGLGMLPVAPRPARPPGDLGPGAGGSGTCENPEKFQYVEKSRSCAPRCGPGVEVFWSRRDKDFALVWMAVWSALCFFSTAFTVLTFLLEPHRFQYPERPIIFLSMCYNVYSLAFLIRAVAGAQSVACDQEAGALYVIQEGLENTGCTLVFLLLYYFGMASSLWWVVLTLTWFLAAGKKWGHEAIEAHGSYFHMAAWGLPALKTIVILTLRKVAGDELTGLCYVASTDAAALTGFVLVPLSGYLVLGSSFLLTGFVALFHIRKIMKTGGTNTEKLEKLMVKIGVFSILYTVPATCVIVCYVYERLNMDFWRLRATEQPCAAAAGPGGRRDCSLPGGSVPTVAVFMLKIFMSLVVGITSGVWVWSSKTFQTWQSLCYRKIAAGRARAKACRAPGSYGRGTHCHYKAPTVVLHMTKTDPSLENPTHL
# UniProt O60353: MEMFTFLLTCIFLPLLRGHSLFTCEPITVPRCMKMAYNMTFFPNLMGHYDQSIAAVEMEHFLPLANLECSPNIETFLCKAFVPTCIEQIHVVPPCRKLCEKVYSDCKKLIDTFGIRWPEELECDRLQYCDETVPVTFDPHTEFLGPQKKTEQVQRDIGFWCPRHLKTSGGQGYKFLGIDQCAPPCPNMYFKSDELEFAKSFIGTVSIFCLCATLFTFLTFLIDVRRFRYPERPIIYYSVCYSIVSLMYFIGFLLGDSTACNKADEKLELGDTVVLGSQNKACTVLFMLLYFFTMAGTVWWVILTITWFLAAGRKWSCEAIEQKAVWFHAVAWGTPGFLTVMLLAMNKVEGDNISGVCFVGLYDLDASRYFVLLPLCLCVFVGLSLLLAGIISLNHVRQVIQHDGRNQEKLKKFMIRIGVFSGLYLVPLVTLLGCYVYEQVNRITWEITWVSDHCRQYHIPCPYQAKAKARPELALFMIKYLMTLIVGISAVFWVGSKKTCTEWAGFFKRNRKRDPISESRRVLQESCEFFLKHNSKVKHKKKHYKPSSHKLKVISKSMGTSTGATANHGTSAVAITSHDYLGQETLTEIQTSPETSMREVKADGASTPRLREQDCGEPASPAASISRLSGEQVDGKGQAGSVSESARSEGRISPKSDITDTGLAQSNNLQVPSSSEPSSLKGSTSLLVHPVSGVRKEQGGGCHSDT
# UniProt Q9ULW2: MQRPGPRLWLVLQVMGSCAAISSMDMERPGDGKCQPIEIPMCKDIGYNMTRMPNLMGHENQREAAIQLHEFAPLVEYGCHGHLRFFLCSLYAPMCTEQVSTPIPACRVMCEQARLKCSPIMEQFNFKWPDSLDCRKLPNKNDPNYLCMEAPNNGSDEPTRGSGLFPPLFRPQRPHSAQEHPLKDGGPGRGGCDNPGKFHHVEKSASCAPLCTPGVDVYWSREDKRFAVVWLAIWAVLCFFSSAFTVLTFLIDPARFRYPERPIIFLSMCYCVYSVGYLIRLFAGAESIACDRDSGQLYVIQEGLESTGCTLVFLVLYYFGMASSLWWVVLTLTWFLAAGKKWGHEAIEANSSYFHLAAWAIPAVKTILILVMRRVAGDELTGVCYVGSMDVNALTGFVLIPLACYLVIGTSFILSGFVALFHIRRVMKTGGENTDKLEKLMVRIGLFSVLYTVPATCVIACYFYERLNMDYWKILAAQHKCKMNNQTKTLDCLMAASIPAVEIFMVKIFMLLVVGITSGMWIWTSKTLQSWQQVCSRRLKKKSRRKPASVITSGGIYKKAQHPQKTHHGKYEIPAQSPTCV
# UniProt Q13467: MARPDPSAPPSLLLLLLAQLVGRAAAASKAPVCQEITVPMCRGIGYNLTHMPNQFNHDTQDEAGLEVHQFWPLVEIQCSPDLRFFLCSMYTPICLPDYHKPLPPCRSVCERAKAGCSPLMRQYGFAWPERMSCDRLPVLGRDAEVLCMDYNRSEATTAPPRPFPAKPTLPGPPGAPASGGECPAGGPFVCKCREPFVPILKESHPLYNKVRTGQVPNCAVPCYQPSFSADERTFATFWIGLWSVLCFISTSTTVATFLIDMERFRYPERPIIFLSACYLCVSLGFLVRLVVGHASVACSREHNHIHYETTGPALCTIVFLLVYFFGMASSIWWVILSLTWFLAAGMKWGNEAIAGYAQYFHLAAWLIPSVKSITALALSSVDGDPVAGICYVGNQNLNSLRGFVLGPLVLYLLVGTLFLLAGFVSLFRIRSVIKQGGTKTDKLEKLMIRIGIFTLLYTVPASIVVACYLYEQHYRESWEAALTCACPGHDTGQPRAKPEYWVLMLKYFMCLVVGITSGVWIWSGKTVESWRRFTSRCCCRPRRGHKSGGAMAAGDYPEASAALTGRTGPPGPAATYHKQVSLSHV
# UniProt Q9NPG1: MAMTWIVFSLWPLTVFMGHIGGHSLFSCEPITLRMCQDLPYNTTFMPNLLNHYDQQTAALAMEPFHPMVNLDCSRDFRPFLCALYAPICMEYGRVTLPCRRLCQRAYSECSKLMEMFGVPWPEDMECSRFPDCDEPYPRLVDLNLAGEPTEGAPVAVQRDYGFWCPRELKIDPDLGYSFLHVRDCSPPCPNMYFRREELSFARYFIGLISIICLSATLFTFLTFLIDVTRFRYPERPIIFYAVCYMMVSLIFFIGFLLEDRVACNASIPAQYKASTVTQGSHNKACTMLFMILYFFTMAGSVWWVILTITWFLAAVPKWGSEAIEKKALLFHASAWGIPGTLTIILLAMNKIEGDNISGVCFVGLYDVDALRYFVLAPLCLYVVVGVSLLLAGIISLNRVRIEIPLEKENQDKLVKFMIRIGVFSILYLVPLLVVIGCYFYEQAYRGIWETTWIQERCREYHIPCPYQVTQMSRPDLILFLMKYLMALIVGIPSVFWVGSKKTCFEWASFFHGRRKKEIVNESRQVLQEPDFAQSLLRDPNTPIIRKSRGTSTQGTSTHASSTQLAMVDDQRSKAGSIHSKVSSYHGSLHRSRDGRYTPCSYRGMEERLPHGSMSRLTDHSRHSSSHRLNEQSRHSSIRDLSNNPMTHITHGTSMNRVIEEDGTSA
# UniProt Q9ULV1: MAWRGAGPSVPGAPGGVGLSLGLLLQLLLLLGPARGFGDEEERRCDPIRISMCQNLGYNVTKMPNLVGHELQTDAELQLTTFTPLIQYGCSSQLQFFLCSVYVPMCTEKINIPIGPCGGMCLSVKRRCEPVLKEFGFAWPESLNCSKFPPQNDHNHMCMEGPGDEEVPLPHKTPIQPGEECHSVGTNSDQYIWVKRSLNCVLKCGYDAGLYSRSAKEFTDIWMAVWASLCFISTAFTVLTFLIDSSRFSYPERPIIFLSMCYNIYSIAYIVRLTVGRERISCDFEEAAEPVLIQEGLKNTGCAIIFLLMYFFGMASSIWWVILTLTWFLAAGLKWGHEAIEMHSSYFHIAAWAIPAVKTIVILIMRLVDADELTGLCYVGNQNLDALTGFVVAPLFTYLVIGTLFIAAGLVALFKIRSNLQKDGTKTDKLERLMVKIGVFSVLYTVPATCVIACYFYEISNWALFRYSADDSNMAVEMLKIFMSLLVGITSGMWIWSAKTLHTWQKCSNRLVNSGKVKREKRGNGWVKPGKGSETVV
# UniProt Q2GI62: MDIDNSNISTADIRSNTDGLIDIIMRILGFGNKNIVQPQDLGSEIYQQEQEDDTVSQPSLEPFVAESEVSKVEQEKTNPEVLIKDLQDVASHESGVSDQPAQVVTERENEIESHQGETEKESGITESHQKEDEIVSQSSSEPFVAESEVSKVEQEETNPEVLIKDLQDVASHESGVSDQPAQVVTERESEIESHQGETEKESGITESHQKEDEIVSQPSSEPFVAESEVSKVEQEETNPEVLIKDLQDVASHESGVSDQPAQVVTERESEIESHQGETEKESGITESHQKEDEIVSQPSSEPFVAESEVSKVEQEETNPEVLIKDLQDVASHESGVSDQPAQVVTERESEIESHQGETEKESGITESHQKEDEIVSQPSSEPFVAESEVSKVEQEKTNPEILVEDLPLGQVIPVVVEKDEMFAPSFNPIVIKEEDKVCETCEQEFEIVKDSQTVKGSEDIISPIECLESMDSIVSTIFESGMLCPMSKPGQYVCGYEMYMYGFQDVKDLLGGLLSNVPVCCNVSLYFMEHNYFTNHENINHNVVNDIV
# Legend:
# Assay in all cases: ELISA; 100 ng rFzd protein adsorbed on MaxiSorp plate in PBS overnight at 4°C; 500 ng rTRP120 in PBS added 1 h at room temperature; detected with α-TRP120-I1 and alkaline phosphatase-conjugated secondary antibody; A650, blank-subtracted; both purified
# [1] = target: recombinant Fzd9 extracellular domain (rFzd9-ECD) (UniProt O00144)
# [2] = target: recombinant Fzd6 extracellular domain (rFzd6-ECD) (UniProt O60353)
# [3] = target: recombinant Fzd10 extracellular domain (rFzd10-ECD) (UniProt Q9ULW2)
# [4] = target: recombinant Fzd5 extracellular domain (rFzd5-ECD) (UniProt Q13467)
# [5] = target: recombinant Fzd3 extracellular domain (rFzd3-ECD) (UniProt Q9NPG1)
# [6] = target: recombinant Fzd4 extracellular domain (rFzd4-ECD) (UniProt Q9ULV1)
substance,measurement,setting,value
"recombinant, full-length TRP120 (rTRP120-FL) (from UniProt Q2GI62 1-548)",binding,[1],binds
same,binding,[2],binds weakly
same,binding,[3],binds weakly
same,binding,[4],binds
same,binding,[5],binds weakly
same,binding,[6],binds

# No constants are given. Whether binding was seen depends on the method and setting. A result given as binding can be weak or reduced; the word gives no strength.
